Measurements as given in publication PMC10250205.
No constants are given. Whether binding was seen depends on the method and setting. In cells and extracts the contact can be indirect. Some binding calls cover weakened binding; strength is not graded here.

Protein sequences, listed by entry. Tags and fused reporters are not part of them.
UniProt P17918: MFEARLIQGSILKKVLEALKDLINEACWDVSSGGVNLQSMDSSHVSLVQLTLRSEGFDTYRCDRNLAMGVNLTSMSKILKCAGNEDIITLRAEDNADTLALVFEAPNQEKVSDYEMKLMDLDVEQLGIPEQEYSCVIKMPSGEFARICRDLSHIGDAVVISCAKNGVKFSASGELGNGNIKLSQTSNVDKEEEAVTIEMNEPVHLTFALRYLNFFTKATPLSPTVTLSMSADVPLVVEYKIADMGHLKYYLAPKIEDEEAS

Biological target: T1, endogenous mouse GCNA in adult testis (mouse (endogenous in testis))
T1 sequence: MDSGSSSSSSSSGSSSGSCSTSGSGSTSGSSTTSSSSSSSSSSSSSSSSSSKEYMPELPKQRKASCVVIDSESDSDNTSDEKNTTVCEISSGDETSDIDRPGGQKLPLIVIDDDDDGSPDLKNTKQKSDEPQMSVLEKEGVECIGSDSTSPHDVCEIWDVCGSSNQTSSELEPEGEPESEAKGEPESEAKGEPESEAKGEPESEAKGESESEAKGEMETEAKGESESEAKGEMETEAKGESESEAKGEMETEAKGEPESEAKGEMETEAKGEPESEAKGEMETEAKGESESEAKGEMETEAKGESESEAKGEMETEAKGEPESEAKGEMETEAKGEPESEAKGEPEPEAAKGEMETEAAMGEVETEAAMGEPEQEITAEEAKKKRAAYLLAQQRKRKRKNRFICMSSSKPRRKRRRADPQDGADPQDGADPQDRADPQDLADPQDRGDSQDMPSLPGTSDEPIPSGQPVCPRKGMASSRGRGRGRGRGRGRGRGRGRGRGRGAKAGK
Assay: proximity ligation; Duolink PLA on formalin-fixed adult mouse testis sections, wild-type against Gcna-/Y; anti-GCNA (Tra98) with anti-PCNA or anti-histone H3

binding: binds
Substance: PCNA, endogenous in mouse testis (from UniProt P17918 1-261)
